Reference: PubChem BioAssay AID504467 (National Center for Advancing Translational Sciences (NCATS), 2011)
About 7,700 (2.3%) of roughly 330,000 compounds were called active. Inconclusive means that the source gave no clear call. Such entries were picked first, then a sample of the others. The call rests on the fitted dose curve; in most records, active means well fitted inhibition curve with a large enough effect; inconclusive means small, poorly fitted or top-dose-only effect, or effect the other way; inactive means flat fitted curve, though single readings scatter. Potencies of inconclusive entries are doubtful fits and often do not repeat.

Experiment: qHTS screen for small molecules that inhibit ELG1-dependent DNA repair in human embryonic kidney (HEK293T) cells expressing luciferase-tagged ELG1; further: nearly all actives have a fitted effect of over 55% in size
Details: HEK293T ELG1-luciferase reporter, luminescence, 16 h, DNA damage induced by 5-fluorouridine; series mostly up to 46.1 µM
Procedure, shortened: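 HEK293T cells expressing luciferase-tagged ELG1 (2,000/well) received 5-Fluorouridine plus compound or DMSO for 16 hr at 37 °C. Luciferase was read by ONE-Glo luminescence after 30 min at room temperature.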
Potency means the concentration at half of the fitted maximal effect.

| SMILES | Potency |
| --- | --- |
| CCCCOC(=O)c1ccc(N)cc1 | inconclusive: 16.4 µM [activator, single point] |
| CC(Oc1ccc2c3c(c(=O)oc2c1)CCCC3)C(=O)NCCN1CCOCC1 (stereo not drawn) | inconclusive: 29.1 µM [activator, partial curve, poor fit] |
| CCOc1ccc(NC(=O)CN(C)C(=O)CCCc2c[nH]c3ccccc23)cc1OCC | inactive |
| O=C(NCc1c(Cl)cccc1Oc1ccccc1)c1ccccc1 | inactive |
| Cc1nnc2sc(-c3ccccn3)nn12 | inconclusive: 32.6 µM [activator, partial curve, poor fit] |
| O=C(CN1CCOCC1)N/N=C/c1c(O)ccc2ccccc12 | inconclusive: 9.2 µM [inhibitor, partial curve, poor fit] |
| CC1CC(C)CN(C(=O)c2ccc(NC(=O)c3ccc(=O)[nH]c3)cc2)C1 (stereo not drawn) | inconclusive: 32.6 µM [activator, partial curve, poor fit] |
| COc1cc(C(=O)NCCOc2ccccc2)cc(OC)c1OC | inactive |
| CCOC(=O)C(C)(C)N(Cc1ccccc1C)S(=O)(=O)c1ccc(Cl)c([N+](=O)[O-])c1 | inconclusive: 23.1 µM [inhibitor, single point] |
| O=C(Cc1ccc(F)cc1)Nc1ccc(S(=O)(=O)N2CCCC2)cc1 | inconclusive: 0.092 µM [inhibitor, single point] |
| COc1ccc(/C=N/N(c2ccccc2)c2ccccc2)cc1O | inactive |
| COc1ccc(-c2cn3cccnc3n2)cc1NS(=O)(=O)c1ccccc1 | inconclusive: 20.6 µM [activator, partial curve] |
| CC(C)C[C@H](NC(=O)NCc1ccc(F)cc1)C(=O)O | inconclusive: 32.6 µM [activator, partial curve, poor fit] |
| COc1ccccc1[C@@H]1C(c2cccc(Cl)c2)=NN(c2ccc(Br)cc2)[C@H]1C(=O)N1CCOC1=O | inactive |
| CC(C)C[C@@H](NC(=O)C1CCC(CNC(=O)[C@H](Cc2ccccc2)NC(=O)OC(C)(C)C)CC1)C(=O)O (stereo partly drawn) | inactive |
| COc1ccccc1C(=O)N/N=C/c1cnc2ccccc2n1 | inconclusive: 20.6 µM [activator, partial curve] |
| CC(=O)OC1COC(N2CCc3ccccc32)C(OC(C)=O)C1OC(C)=O (stereo not drawn) | inconclusive: 18.4 µM [activator, single point] |
| Cc1nn(C)cc1CN(C)C(=O)c1cc(-c2ccccc2)nc2ccc(Br)cc12 | inconclusive: 25.9 µM [inhibitor, single point] |
| CCOC(=O)c1csc(CCNC(=O)c2oc3c(Cl)cc(C)cc3c2C)n1 | inconclusive: 29.1 µM [activator, single point] |
| CC(C)(C)c1ccccc1NC(=O)c1ccco1 | inactive |
| O=C(OCCN1C(=O)c2ccccc2C1=O)Oc1ccccc1 | inconclusive: 8.2 µM [activator, partial curve, poor fit] |
| O=C1CCC(=O)N(O)CCCCCNC(=O)CCC(=O)N(O)CCCCCNC(=O)CCC(=O)N(O)CCCCCN1 | inconclusive: 16.4 µM [inhibitor, partial curve, poor fit] |
| Cc1ccc(C)c(Cn2nnc3c(=O)[nH]c(C4CCCN(C(=O)c5cccs5)C4)nc32)c1 (stereo not drawn) | inactive |

| SMILES | Potency |
| --- | --- |
| CCC(CO)Oc1cc(NCc2ccc(C(F)(F)F)cc2)c2ncn(C(C)C)c2c1 (stereo not drawn) | inconclusive: 20.6 µM [inhibitor, single point] |
| CC(C)(C)c1cc(C(=O)NN)n(Cc2ccc(F)cc2)n1 | inactive |
| O=C(N/C(=C/c1cccc([N+](=O)[O-])c1)C(=O)N1CCCCC1)c1ccco1 | inconclusive: 29.1 µM [inhibitor, single point] |
| c1ccc(-c2csc(Nc3cccnc3)n2)cc1 | inconclusive: 10.3 µM [activator, partial curve] |
| N#CCCN1CCN(Cc2cc(-c3ccccc3)ccc2O)CC1 | inconclusive: 16.4 µM [inhibitor, single point] |
| CCn1c(CCn2c3ccccc3c3ccccc32)n[nH]c1=S | inactive |
| Oc1ccccc1CNc1ccc2c(c1)OCCO2 | inconclusive: 20.6 µM [activator, partial curve] |
| Cc1nnc(SC(C)C(=O)NCC2CCCO2)s1 (stereo not drawn) | inactive |
| COc1ccccc1NC(=O)/C(C#N)=C/c1ccncc1 | inconclusive: 1.64 µM [inhibitor, partial curve] |
| Cc1nnc(NC(=O)c2cccc(Br)c2)s1 | inconclusive: 23.1 µM [activator, partial curve] |
| COc1cc2[nH]c(=O)n(CCCC(=O)N3CC=C(c4ccccc4)CC3)c(=O)c2cc1OC | inconclusive: 20.6 µM [inhibitor, partial curve] |
| Cn1c(=O)c(C(=O)Nc2ccccn2)c(O)c2ccccc21 | inconclusive: 2.31 µM [activator, partial curve] |
| Cc1cc(C(C)(C)C)oc1C(=O)N(CC(=O)NC1CCCC1)c1c(C)cccc1C | inactive |
| CCCCNC(=O)c1ccc(NC(=O)CC2SC(N3CCCC3)=NC2=O)cc1 (stereo not drawn) | inconclusive: 29.1 µM [activator, single point] |
| Cc1nn(-c2ccccc2)c2nc(N)c(C#N)c(-c3ccc(C(C)(C)C)cc3)c12 | inconclusive: 20.6 µM [inhibitor, partial curve, poor fit] |
| CCc1ccccc1N1C(=O)C2C3C=CC(CC3)C2C1=O (stereo not drawn) | inactive |
| Cc1cccc(N=C2NC(=O)/C(=C/c3cccnc3)S2)c1C | inconclusive: 2.31 µM [inhibitor, partial curve, poor fit] |
| CCOC(=O)C1=C(COC(=O)c2cc(Br)c(Br)s2)NC(=O)NC1C (stereo not drawn) | inactive |
| COc1cccc(OCc2cc(C(=O)N(C)Cc3nccn3C)no2)c1 | inconclusive: 13 µM [activator, partial curve] |
| CCc1ccc(-c2cc(C(=O)NN3CCOCC3)c3ccccc3n2)s1 | inconclusive: 29.1 µM [activator, single point] |
| CC(C)c1onc(C(=O)Nc2cccc(O)c2)c1[N+](=O)[O-] | inconclusive: 23.1 µM [activator, single point] |
| COc1ccc(N(CC(=O)Nc2c(C)n(C)n(-c3ccccc3)c2=O)S(=O)(=O)c2ccc(C)cc2)cc1OC | inactive |
| COc1ccc(-c2ccc3c(c2)S(=O)(=O)c2cccc(C(=O)NCc4cccc(OC(F)(F)F)c4)c2C3=O)cc1OC | inconclusive: 20.6 µM [activator, partial curve, poor fit] |

| SMILES | Potency |
| --- | --- |
| O=C(C[n+]1ccccc1)N/N=C/c1cccs1 | inactive |
| CCCc1nc2nc(C)c(NS(=O)(=O)c3ccc(CC(C)C)cc3)c(=O)n2[nH]1 | inactive |
| COc1ccc(NC(=O)N2CCCc3ccccc32)cc1OC | inconclusive: 7.3 µM [activator, partial curve, poor fit] |
| O=C(NC1CCCCC1)N1CCN(C(c2ccccc2)c2ccccc2)CC1 | inconclusive: 18.4 µM [inhibitor, partial curve, poor fit] |
| N=c1scc(-c2ccccc2)n1/N=C/c1ccco1 | inconclusive: 9.2 µM [activator, partial curve] |
| O=C(Nc1ccccc1)O[C@@H]1C[C@H]2CCC(=O)N3CC[C@@H](C1)[C@@H]23 | inconclusive: 23.1 µM [activator, single point] |
| Cc1ccc(-c2[nH]ncc2CN2CCN(C(=O)c3cccs3)CC2)cc1C | active: 11.6 µM |
| O=C(c1ccc(F)cc1)n1ccc(-c2cnc(-c3ccccc3)s2)n1 | inconclusive: 2.06 µM [activator, full curve] |
| Cc1ccccc1-c1nnc(SCC(=O)Nc2cccnc2Cl)o1 | inconclusive: 1.83 µM [activator, full curve] |
| CC(=O)Cc1nsc(NC(=O)c2ccccc2Cl)n1 | inconclusive: 20.6 µM [activator, single point] |
| Cc1ccc2[nH]c3c(c2c1)CN(C(=O)CN1CCSCC1)CC3 | inactive |
| COc1c(C)cc(C(=O)C2CCCN(C(=O)c3cc(C)n(C)n3)C2)cc1C (stereo not drawn) | inconclusive: 23.1 µM [inhibitor, single point] |
| O=C(c1ccc(S(=O)(=O)N2CCCCCC2)cc1)N1CCCC(C(F)(F)F)C1 (stereo not drawn) | inactive |
| CCOC(=O)c1[nH]cnc1C(=O)Nc1cccc(OC)c1 | inactive |
| CCOC(=O)c1ccccc1NC(=O)c1cc(S(=O)(=O)N2CCOCC2)ccc1F | inactive |
| CC(=O)C1(C)N(O)C(C)(C)C(c2cccs2)=[N+]1[O-] (stereo not drawn) | inconclusive: 0.116 µM [activator, full curve, poor fit] |
| Cc1cc(C(=O)CN2C(=O)C(=O)N(CCC3=CCCCC3)C2=O)c(C)n1C | inconclusive: 23.1 µM [inhibitor, partial curve, poor fit] |
| CCN1CCN(CCCOc2ccc(-c3ccccc3)cc2)CC1 | inconclusive: 14.6 µM [activator, partial curve] |
| COCCCNC(=O)/C(C#N)=C/c1c(N2CCN(c3cccc(Cl)c3)CC2)nc2c(C)cccn2c1=O | active: 23.1 µM |
| COc1ccc(-n2nc3cc(C)c(NC(=O)CC(C)C)cc3n2)cc1 | inconclusive: 13 µM [activator, partial curve, poor fit] |
| CC(C)c1cc(C(=O)NC2CCCCC2)no1 | inconclusive: 16.4 µM [activator, partial curve] |
| COc1cc(/C=N/NC(=O)CC23CC4CC(CC(C4)C2)C3)cc(Br)c1OCC(=O)N(C)C | inconclusive: 18.4 µM [inhibitor, single point] |

Part of the list above, tab-delimited.
SMILES	Potency
COc1ccc(NC(=O)N2CCCc3ccccc32)cc1OC	inconclusive: 7.3 µM [activator, partial curve, poor fit]
Cc1ccc(-c2[nH]ncc2CN2CCN(C(=O)c3cccs3)CC2)cc1C	active: 11.6 µM
CC(=O)C1(C)N(O)C(C)(C)C(c2cccs2)=[N+]1[O-] (stereo not drawn)	inconclusive: 0.116 µM [activator, full curve, poor fit]
